Experimental data: PubChem BioAssay AID1224830 (NIAID, 2016)
Assay: 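Regulators of TLR4 signalling towards TNF-alpha in macrophage-like cells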 (primary screen). Cells: human THP-1 monocytic leukaemia cells, TNF dual-luciferase reporter clone, PMA-differentiated to macrophage-like cells. Reagents: siRNA pool against human genes, 50 nM. Timing: LPS for 4 h, given about 3 days after siRNA transfection. Treatment: bacterial LPS (TLR4 ligand), 10 ng/ml. Measured: 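Ratio of firefly to renilla light, scaled to the plate median and expressed as a robust z-score per replicate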. Reading the numbers: TNF reporter robust z-score: higher = stronger TNF reporter response to LPS. Rule for the call: 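Each well counts as active if its z-score is over 2.8 or under -1.5; controls are left without a call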.
This is one part, drawn at random, of about 18,000 reagents tested. About 2,900 of all reagents (16%) count as active. 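Calls are made per well; low scores hint the gene aids the LPS response, high scores that it dampens it.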 Unmarked entries are inactive. Repeated entries: four replicate wells of each siRNA pool. No sequences are given here.

For SLC35E3, what was measured?
TNF reporter robust z-score: -0.87

What is on record for SLC35E3?
TNF reporter robust z-score: -0.84

What did the screen give for SLC35E3?
TNF reporter robust z-score: -0.24

With SLC35E3, how do the results read?
TNF reporter robust z-score: -0.8

For FUT7, what does the deposit list?
TNF reporter robust z-score: -0.04

What is on record for FUT7?
TNF reporter robust z-score: 0.64

With FUT7, what does the deposit list?
TNF reporter robust z-score: -0.21

What is on record for FUT7?
TNF reporter robust z-score: 0.74

What did the screen give for ARTN?
TNF reporter robust z-score: 3.23 (active)

How did the screen score ARTN?
TNF reporter robust z-score: 2.67

With ARTN, what was measured?
TNF reporter robust z-score: 2.98 (active)

With ARTN, what was measured?
TNF reporter robust z-score: 2.45

For UGCG, what does the deposit list?
TNF reporter robust z-score: -1.07

For UGCG, what does the deposit list?
TNF reporter robust z-score: 1.13

With UGCG, what does the deposit list?
TNF reporter robust z-score: -0.07

With UGCG, what was measured?
TNF reporter robust z-score: 0.58

How did the screen score GCLC?
TNF reporter robust z-score: 0.43

What is on record for GCLC?
TNF reporter robust z-score: 1.19

With GCLC, what was measured?
TNF reporter robust z-score: 0.06

For GCLC, what was measured?
TNF reporter robust z-score: 1.51

Targets listed so far whose target name starts with G or g:
GCLC — TNF reporter robust z-score = 0.43
GCLC — TNF reporter robust z-score = 1.19
GCLC — TNF reporter robust z-score = 0.06
GCLC — TNF reporter robust z-score = 1.51
